At least one compound was matched to its structure with a doubt left.
Biological target: tryptase
Assay: In vitro tryptase inhibition assay
Type: biochemical, human
Conditions: tosyl-Gly-Pro-Lys-p-nitroanilide 0.5 mM; 1 h preincubation at room temperature; pH 8.2
Method: The compounds to be assayed (approximately 1 mg) were dissolved in 200 μL dimethylsulfoxide (DMSO) and diluted 1:10 into buffer containing 50 millimolar (mM) Tris-HCl (pH 8.2), 100 mM sodium chloride, and 0.05% polyoxyethylenesorbitan monolaurate (Tween-20°, available from Sigma, St. Louis, Mo.). Seven additional threefold dilutions were made from the initial dilution into the same buffer supplemented with 10% DMSO. Aliquots (50 microliters, μL) from each of the eight dilutions in the series were transferred to individual wells in a 96-well U-bottom microtiter plate. […] The tryptase solution was prepared by placing 60 μg/mL of tryptase into solution with 10 mM MES (2-[N-Morpholino]ethane sulfonic acid) containing 2 mM CaCl2, 20% glycerol and 50 μg/mL heparin. The enzyme reaction was initiated with the addition of the synthetic tripeptide substrate, tosyl-Gly-Pro-Lys-p-nitroanilide (available from Sigma, 25 μL; 0.5 mM final concentration). […] Initial velocity measurements calculated from the progress curves by a kinetic analysis program (BatchKi; Petr Kuzmic, University of Wisconsin, Madison, Wis.) were used to determine apparent inhibition constants for each inhibitor.

SMILES: CN(CCCC(=O)NCc1ccc(CNC(=O)CCCN(C)C(=O)c2ccc(CN)cc2)cc1)C(=O)c1ccc(CN)cc1 [Example 21, N,N'-Bis(N-(4-aminomethylbenzamido)-N-methyl-4-aminobutyl)-p-xylylene diamide]
- Ki: 1000 nM

Reference: patent US5656660A, “Compositions and methods for treating mast-cell mediated conditions” (Arris Pharmaceutical Corporation, priority 1995, dated 1997)
